Measurements published in the supplement of paper PMC12823440, “Inhibitors supercharge kinase turnover through native proteolytic circuits” (Nature, 2025).
This is one part of the list. The calls rarely recur for the same compound in another form.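 Kinases were expressed as nanoluciferase fusions in K562 cells and luminescence was read every 4 h between 2 and 18 h as percent of control, DMSO set to 100% and a positive control to 0%. A time point counts as decreased when the signal drops significantly (2 sigma). The hit call is the authors' own, does not follow from the count of time points alone, and its rule is not shown.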

The chains behind the UniProt entries cited, without tags or fusion partners. Where a name states a change or a piece, a line headed by the entry shows the natural chain unless it says otherwise.
UniProt P50613: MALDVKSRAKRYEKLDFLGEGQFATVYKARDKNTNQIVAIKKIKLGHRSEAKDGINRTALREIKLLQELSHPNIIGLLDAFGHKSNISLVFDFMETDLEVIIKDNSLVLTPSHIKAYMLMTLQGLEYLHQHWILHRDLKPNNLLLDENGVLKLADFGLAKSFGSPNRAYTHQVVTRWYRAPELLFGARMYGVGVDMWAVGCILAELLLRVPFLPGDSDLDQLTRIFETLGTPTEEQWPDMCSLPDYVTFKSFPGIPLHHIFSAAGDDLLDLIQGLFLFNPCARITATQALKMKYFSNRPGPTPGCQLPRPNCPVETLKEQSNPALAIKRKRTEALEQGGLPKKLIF
UniProt P50750, whole entry: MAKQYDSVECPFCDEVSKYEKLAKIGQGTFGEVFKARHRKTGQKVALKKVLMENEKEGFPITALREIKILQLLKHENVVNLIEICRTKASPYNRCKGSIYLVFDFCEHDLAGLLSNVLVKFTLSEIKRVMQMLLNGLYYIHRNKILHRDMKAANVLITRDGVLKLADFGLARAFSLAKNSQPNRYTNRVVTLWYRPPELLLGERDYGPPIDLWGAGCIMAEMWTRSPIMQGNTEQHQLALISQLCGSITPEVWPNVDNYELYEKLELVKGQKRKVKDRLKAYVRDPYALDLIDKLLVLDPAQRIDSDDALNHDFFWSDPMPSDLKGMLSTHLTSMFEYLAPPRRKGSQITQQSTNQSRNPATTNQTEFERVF
UniProt P07333, whole entry: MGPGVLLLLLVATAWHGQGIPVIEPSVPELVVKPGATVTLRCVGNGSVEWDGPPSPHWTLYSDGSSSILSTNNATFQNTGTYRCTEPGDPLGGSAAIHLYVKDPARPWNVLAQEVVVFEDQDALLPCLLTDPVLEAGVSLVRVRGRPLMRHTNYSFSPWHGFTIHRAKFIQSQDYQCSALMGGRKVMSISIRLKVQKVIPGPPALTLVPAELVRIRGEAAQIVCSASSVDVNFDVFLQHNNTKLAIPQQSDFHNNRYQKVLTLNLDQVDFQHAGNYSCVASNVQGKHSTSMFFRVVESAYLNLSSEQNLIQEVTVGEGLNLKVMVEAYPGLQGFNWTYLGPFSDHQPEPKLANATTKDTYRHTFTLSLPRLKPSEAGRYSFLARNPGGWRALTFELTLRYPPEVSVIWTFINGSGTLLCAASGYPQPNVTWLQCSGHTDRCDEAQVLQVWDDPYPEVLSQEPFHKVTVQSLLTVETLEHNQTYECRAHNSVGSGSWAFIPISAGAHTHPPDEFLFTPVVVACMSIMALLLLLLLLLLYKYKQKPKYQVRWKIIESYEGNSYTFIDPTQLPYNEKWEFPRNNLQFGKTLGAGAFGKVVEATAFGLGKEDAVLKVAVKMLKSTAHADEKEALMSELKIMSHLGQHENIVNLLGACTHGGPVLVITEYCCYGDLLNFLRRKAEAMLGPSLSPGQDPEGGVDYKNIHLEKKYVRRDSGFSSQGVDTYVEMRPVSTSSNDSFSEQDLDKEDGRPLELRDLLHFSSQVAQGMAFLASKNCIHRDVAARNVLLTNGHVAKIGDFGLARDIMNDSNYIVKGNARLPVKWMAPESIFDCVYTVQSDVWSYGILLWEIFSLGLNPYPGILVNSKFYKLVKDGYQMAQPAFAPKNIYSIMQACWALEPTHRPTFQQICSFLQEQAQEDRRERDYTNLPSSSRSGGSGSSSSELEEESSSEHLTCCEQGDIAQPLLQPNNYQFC
UniProt P41240: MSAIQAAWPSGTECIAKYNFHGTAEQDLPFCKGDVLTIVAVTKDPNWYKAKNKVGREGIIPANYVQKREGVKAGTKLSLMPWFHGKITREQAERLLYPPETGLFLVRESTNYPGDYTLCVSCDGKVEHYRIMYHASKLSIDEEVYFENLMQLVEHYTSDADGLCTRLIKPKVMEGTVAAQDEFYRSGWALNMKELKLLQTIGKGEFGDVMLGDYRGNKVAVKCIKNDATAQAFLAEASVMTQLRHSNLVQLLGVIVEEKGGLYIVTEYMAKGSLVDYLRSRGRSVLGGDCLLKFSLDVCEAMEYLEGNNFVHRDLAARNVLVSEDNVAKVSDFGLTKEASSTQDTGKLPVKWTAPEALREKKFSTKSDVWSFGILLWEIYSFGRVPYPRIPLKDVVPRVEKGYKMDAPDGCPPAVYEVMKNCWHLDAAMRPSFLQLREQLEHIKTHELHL
UniProt P48729: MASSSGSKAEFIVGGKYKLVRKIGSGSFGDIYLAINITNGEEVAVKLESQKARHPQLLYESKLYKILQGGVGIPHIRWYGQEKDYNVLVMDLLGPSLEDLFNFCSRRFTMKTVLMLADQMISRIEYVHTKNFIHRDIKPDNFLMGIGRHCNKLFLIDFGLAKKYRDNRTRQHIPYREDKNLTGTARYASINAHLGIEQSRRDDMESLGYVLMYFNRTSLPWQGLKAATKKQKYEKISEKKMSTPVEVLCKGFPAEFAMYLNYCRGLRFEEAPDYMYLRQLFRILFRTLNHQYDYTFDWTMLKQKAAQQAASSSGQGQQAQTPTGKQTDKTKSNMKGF
UniProt P48730: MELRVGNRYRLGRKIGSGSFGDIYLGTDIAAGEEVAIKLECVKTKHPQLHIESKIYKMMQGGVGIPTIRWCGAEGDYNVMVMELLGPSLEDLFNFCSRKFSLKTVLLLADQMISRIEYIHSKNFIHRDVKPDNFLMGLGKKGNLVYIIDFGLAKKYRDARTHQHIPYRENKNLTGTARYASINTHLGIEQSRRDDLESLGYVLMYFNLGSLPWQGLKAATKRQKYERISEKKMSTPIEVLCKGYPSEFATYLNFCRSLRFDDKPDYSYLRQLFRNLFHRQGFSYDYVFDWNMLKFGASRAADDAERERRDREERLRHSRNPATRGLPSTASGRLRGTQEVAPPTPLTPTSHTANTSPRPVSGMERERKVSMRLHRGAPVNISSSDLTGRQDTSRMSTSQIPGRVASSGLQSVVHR
UniProt Q9Y463, whole entry, looked up: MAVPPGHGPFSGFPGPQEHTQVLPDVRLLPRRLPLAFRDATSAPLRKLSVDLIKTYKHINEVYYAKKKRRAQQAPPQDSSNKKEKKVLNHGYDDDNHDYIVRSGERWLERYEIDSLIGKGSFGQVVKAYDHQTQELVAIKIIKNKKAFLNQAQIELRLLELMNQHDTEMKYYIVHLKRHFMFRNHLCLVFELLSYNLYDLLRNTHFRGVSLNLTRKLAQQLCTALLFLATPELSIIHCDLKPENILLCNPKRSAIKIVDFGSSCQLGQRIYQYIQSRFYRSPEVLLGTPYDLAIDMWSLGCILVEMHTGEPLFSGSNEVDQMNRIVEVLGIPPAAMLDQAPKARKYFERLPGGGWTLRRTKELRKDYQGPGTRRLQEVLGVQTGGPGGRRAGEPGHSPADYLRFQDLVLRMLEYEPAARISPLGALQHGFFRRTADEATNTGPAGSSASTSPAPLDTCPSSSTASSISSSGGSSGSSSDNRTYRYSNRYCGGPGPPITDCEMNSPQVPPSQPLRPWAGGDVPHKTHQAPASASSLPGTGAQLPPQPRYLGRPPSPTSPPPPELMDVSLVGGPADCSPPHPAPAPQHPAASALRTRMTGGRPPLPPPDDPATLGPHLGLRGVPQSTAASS
UniProt Q92630: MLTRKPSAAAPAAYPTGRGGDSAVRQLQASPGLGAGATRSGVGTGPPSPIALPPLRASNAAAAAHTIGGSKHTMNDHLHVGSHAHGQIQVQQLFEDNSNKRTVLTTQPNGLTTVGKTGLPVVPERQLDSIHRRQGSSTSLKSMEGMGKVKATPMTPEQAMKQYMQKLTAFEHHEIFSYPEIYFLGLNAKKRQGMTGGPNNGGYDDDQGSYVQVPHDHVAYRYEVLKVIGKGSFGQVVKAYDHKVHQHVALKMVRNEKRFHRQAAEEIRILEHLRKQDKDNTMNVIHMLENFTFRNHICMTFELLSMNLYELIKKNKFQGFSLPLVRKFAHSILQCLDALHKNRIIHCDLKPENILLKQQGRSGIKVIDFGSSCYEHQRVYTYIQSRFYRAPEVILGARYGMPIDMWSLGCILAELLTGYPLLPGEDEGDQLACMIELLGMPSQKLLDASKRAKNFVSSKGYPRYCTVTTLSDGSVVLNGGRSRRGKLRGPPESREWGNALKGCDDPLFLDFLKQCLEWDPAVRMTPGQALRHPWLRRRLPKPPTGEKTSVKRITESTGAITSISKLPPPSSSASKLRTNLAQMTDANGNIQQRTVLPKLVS
UniProt P29317, whole entry: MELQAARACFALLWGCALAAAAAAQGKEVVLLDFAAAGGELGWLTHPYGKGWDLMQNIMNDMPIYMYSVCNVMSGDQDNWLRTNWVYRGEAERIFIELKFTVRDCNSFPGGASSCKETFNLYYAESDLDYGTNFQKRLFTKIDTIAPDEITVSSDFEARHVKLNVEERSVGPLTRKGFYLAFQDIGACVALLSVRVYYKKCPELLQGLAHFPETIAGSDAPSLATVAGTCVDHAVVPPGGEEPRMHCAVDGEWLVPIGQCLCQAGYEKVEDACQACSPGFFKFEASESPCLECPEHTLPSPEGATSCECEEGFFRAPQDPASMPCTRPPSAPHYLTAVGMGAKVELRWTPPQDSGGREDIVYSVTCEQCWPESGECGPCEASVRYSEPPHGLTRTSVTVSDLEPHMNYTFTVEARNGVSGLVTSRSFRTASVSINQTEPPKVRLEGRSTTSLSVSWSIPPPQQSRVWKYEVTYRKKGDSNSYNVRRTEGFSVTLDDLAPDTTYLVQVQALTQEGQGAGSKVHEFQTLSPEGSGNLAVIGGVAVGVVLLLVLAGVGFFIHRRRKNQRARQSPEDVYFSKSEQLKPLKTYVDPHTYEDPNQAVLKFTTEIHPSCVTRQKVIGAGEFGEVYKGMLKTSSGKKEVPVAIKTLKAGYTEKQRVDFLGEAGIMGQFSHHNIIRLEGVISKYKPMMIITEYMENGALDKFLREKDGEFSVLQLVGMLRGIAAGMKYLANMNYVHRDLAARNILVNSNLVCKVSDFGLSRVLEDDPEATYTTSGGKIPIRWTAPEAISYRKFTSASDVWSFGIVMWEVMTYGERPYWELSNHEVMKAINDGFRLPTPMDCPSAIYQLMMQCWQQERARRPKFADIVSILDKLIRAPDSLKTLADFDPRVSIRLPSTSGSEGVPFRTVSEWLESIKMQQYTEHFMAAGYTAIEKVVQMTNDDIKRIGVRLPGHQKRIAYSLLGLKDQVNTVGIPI
UniProt P21860, whole entry: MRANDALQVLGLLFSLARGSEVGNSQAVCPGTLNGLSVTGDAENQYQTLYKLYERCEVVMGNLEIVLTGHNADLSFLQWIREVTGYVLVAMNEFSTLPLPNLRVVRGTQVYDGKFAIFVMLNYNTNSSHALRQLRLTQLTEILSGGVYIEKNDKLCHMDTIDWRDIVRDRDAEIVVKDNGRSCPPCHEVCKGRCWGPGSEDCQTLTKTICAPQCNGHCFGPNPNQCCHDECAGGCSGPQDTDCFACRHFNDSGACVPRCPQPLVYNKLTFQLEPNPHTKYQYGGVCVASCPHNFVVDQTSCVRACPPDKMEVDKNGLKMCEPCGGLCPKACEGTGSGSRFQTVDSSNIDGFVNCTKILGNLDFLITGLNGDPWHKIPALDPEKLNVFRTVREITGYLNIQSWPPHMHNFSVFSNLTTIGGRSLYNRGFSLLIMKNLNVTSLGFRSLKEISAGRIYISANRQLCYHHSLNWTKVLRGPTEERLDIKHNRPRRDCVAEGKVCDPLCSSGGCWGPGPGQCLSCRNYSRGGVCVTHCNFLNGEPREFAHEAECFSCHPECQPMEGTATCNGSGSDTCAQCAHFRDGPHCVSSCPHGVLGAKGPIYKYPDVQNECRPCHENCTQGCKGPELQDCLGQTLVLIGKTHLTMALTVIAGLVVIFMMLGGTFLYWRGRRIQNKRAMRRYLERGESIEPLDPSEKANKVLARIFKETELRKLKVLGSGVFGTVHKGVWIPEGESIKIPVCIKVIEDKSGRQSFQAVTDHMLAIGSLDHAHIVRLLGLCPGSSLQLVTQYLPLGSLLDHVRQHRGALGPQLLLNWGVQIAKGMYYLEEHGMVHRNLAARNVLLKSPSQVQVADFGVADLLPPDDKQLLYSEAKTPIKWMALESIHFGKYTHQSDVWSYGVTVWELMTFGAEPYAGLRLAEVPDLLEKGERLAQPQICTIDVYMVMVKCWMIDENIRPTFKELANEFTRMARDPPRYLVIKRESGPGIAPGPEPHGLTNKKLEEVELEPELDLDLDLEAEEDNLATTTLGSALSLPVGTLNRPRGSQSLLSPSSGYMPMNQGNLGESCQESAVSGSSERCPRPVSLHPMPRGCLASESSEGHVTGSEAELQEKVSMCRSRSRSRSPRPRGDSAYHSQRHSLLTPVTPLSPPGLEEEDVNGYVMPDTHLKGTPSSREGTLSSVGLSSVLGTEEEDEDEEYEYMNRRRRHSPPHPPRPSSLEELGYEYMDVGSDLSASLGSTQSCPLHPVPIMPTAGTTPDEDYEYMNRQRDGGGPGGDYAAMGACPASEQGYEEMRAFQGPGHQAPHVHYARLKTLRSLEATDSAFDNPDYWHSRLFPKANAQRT

What was measured:
Experiment in all cases: kinase-Nluc reporter destabilization hit call (1 = scored as downregulated) (binary); higher = compound decreases kinase abundance
Conditions in all cases: K562; 2-18 h
CDK7 = CDK7 (UniProt P50613)
CDK9 = CDK9 (UniProt P50750)
CHEK2 = CHEK2 (UniProt O96017)
CSF1R = CSF1R (UniProt P07333)
CSK = CSK (UniProt P41240)
CSNK1A1 = CSNK1A1 (UniProt P48729)
CSNK1D = CSNK1D (UniProt P48730)
DDR1 = DDR1 (UniProt Q08345)
DYRK1B = DYRK1B (UniProt Q9Y463)
DYRK2 = DYRK2 (UniProt Q92630)
EGFR = EGFR (UniProt P00533)
EGFR_G719S = EGFR_G719S (UniProt P00533)
EGFR_G719S_T790M = EGFR_G719S_T790M (UniProt P00533)
EGFR_L718V = EGFR_L718V (UniProt P00533)
EGFR_L858R = EGFR_L858R (UniProt P00533)
EGFR_L861Q = EGFR_L861Q (UniProt P00533)
EGFR_T790M = EGFR_T790M (UniProt P00533)
EPHA2 = EPHA2 (UniProt P29317)
ERBB3 = ERBB3 (UniProt P21860)
[1] = biological target: ERBB4_R711C (clone: ERBB4_mut) (UniProt Q15303)

SMILES | kinase-Nluc reporter destabilization hit call (CDK7) | kinase-Nluc reporter destabilization hit call (CDK9) | kinase-Nluc reporter destabilization hit call (CHEK2) | kinase-Nluc reporter destabilization hit call (CSF1R) | kinase-Nluc reporter destabilization hit call (CSK) | kinase-Nluc reporter destabilization hit call (CSNK1A1) | kinase-Nluc reporter destabilization hit call (CSNK1D) | kinase-Nluc reporter destabilization hit call (DDR1) | kinase-Nluc reporter destabilization hit call (DYRK1B) | kinase-Nluc reporter destabilization hit call (DYRK2) | kinase-Nluc reporter destabilization hit call (EGFR) | kinase-Nluc reporter destabilization hit call (EGFR_G719S) | kinase-Nluc reporter destabilization hit call (EGFR_G719S_T790M) | kinase-Nluc reporter destabilization hit call (EGFR_L718V) | kinase-Nluc reporter destabilization hit call (EGFR_L858R) | kinase-Nluc reporter destabilization hit call (EGFR_L861Q) | kinase-Nluc reporter destabilization hit call (EGFR_T790M) | kinase-Nluc reporter destabilization hit call (EPHA2) | kinase-Nluc reporter destabilization hit call (ERBB3) | kinase-Nluc reporter destabilization hit call [1]
O=C(Nc1nccs1)C(c1cc(F)ccc1O)N1Cc2ccccc2C1=O (stereo not given) (10 µM) | inactive: 0 | inactive: 0 | inactive: 0 | inactive: 0 | inactive: 0 | inactive: 0 | inactive: 0 | inactive: 0 | inactive: 0 | inactive: 0 | inactive: 0 | inactive: 0 | inactive: 0 | inactive: 0 | inactive: 0 | inactive: 0 | inactive: 0 | inactive: 0 | inactive: 0 | inactive: 0
O=C(NCc1cccc(O)c1)c1cc2cc(F)ccc2[nH]1 (10 µM) | inactive: 0 | inactive: 0 | inactive: 0 | inactive: 0 | inactive: 0 | inactive: 0 | inactive: 0 | inactive: 0 | inactive: 0 | inactive: 0 | inactive: 0 | inactive: 0 | inactive: 0 | inactive: 0 | inactive: 0 | inactive: 0 | inactive: 0 | inactive: 0 | inactive: 0 | inactive: 0
C=CC(=O)N[C@H]1CCOC[C@H]1Nc1ncc2cc(-c3c(Cl)c(OC)cc(OC)c3Cl)ccc2n1 [Fisogatinib] (10 µM) | inactive: 0 | inactive: 0 | inactive: 0 | inactive: 0 | inactive: 0 | inactive: 0 | inactive: 0 | inactive: 0 | inactive: 0 | inactive: 0 | inactive: 0 | inactive: 0 | inactive: 0 | inactive: 0 | inactive: 0 | inactive: 0 | inactive: 0 | inactive: 0 | inactive: 0 | inactive: 0
C[C@@H](Nc1cc(F)cc(F)c1)c1cc(C(=O)N(C)C)cc2c(=O)cc(N3CCOCC3)oc12 (10 µM) | inactive: 0 | inactive: 0 | inactive: 0 | inactive: 0 | inactive: 0 | inactive: 0 | inactive: 0 | inactive: 0 | inactive: 0 | inactive: 0 | inactive: 0 | inactive: 0 | inactive: 0 | inactive: 0 | inactive: 0 | inactive: 0 | inactive: 0 | inactive: 0 | inactive: 0 | inactive: 0
CCn1c2ccccc2c2cc(Nc3ccnc(NCCCN4CCOCC4)n3)ccc21 (2.5 µM) | inactive: 0 | inactive: 0 | inactive: 0 | inactive: 0 | inactive: 0 | inactive: 0 | inactive: 0 | inactive: 0 | inactive: 0 | inactive: 0 | inactive: 0 | inactive: 0 | inactive: 0 | inactive: 0 | inactive: 0 | inactive: 0 | inactive: 0 | inactive: 0 | inactive: 0 | inactive: 0
CC[C@@H]1CN(C(=O)NCC(F)(F)F)C[C@@H]1c1cnc2cnc3[nH]ccc3n12 [Upadacitinib] (10 µM) | inactive: 0 | inactive: 0 | inactive: 0 | inactive: 0 | inactive: 0 | inactive: 0 | inactive: 0 | inactive: 0 | inactive: 0 | inactive: 0 | inactive: 0 | inactive: 0 | inactive: 0 | inactive: 0 | inactive: 0 | inactive: 0 | inactive: 0 | inactive: 0 | inactive: 0 | inactive: 0
CC(C)n1cnnc1-c1cccc(NC(=O)c2cc3ccc(F)cc3[nH]2)n1 (2.5 µM) | inactive: 0 | inactive: 0 | inactive: 0 | inactive: 0 | inactive: 0 | inactive: 0 | inactive: 0 | inactive: 0 | inactive: 0 | inactive: 0 | inactive: 0 | inactive: 0 | inactive: 0 | inactive: 0 | inactive: 0 | inactive: 0 | inactive: 0 | inactive: 0 | inactive: 0 | inactive: 0
C=CC(=O)Nc1cccc(Nc2nc(Nc3ccc(Oc4ccnc(C(=O)NC)c4)cc3)ncc2F)c1 (2.5 µM) | inactive: 0 | inactive: 0 | inactive: 0 | inactive: 0 | inactive: 0 | inactive: 0 | inactive: 0 | inactive: 0 | inactive: 0 | inactive: 0 | inactive: 0 | inactive: 0 | inactive: 0 | inactive: 0 | inactive: 0 | inactive: 0 | inactive: 0 | inactive: 0 | inactive: 0 | inactive: 0
COc1cc(/C=C/c2ccc(NC(=O)/C=C/c3cc(OC)c(OC)c(OC)c3)cc2)cc(OC)c1 (2.5 µM) | inactive: 0 | inactive: 0 | inactive: 0 | inactive: 0 | inactive: 0 | inactive: 0 | inactive: 0 | inactive: 0 | inactive: 0 | inactive: 0 | inactive: 0 | inactive: 0 | inactive: 0 | inactive: 0 | inactive: 0 | inactive: 0 | inactive: 0 | inactive: 0 | inactive: 0 | inactive: 0
CN(c1ccc(C(F)(F)F)cc1)S(=O)(=O)c1ccc(C(=O)Nc2nc(-c3ccccn3)cs2)cc1 (2.5 µM) | inactive: 0 | inactive: 0 | inactive: 0 | inactive: 0 | inactive: 0 | inactive: 0 | inactive: 0 | inactive: 0 | inactive: 0 | inactive: 0 | inactive: 0 | inactive: 0 | inactive: 0 | inactive: 0 | inactive: 0 | inactive: 0 | inactive: 0 | inactive: 0 | inactive: 0 | inactive: 0
CC(C)=CCC/C(C)=C/CC/C(C)=C/CSc1ccccc1C(=O)O [Salirasib] (10 µM) | inactive: 0 | inactive: 0 | inactive: 0 | inactive: 0 | inactive: 0 | inactive: 0 | inactive: 0 | inactive: 0 | inactive: 0 | inactive: 0 | inactive: 0 | inactive: 0 | inactive: 0 | inactive: 0 | inactive: 0 | inactive: 0 | inactive: 0 | inactive: 0 | inactive: 0 | inactive: 0
COc1ccc(S(=O)(=O)N(CCO)c2ccccc2CN(C)CC=Cc2ccc(Cl)cc2)cc1 (2.5 µM) | inactive: 0 | inactive: 0 | inactive: 0 | inactive: 0 | inactive: 0 | inactive: 0 | inactive: 0 | inactive: 0 | inactive: 0 | inactive: 0 | inactive: 0 | inactive: 0 | inactive: 0 | inactive: 0 | inactive: 0 | inactive: 0 | inactive: 0 | inactive: 0 | inactive: 0 | inactive: 0
CC(C)(C)c1ccc(C(=O)Nc2cn3cc(-n4ccnc4)ccc3n2)cc1 (10 µM) | inactive: 0 | inactive: 0 | inactive: 0 | inactive: 0 | inactive: 0 | inactive: 0 | inactive: 0 | inactive: 0 | inactive: 0 | inactive: 0 | inactive: 0 | inactive: 0 | inactive: 0 | inactive: 0 | inactive: 0 | inactive: 0 | inactive: 0 | inactive: 0 | inactive: 0 | inactive: 0
O=C1NCCSc2c1sc1ccc(O)cc21 (2.5 µM) | inactive: 0 | inactive: 0 | inactive: 0 | inactive: 0 | inactive: 0 | inactive: 0 | inactive: 0 | inactive: 0 | inactive: 0 | inactive: 0 | inactive: 0 | inactive: 0 | inactive: 0 | inactive: 0 | inactive: 0 | inactive: 0 | inactive: 0 | inactive: 0 | inactive: 0 | inactive: 0
Cn1sc(=O)n(Cc2ccccc2)c1=O (10 µM) | inactive: 0 | inactive: 0 | inactive: 0 | inactive: 0 | inactive: 0 | inactive: 0 | inactive: 0 | inactive: 0 | inactive: 0 | inactive: 0 | inactive: 0 | inactive: 0 | inactive: 0 | inactive: 0 | inactive: 0 | inactive: 0 | inactive: 0 | inactive: 0 | inactive: 0 | inactive: 0
Cc1ccc(-n2c(-c3ccc(O)cc3O)n[nH]c2=O)cc1 (10 µM) | active: 1 | inactive: 0 | inactive: 0 | active: 1 | inactive: 0 | inactive: 0 | inactive: 0 | inactive: 0 | inactive: 0 | inactive: 0 | inactive: 0 | inactive: 0 | inactive: 0 | inactive: 0 | inactive: 0 | inactive: 0 | inactive: 0 | inactive: 0 | inactive: 0 | inactive: 0

Looked up above:
Entry for `COc1cc(/C=C/c2ccc(NC(=O)/C=C/c3cc(OC)c(OC)c(OC)c3)cc2)cc(OC)c1` (2.5 µM) under kinase-Nluc reporter destabilization hit call (CSF1R): inactive: 0
Entry for `O=C1NCCSc2c1sc1ccc(O)cc21` (2.5 µM) under kinase-Nluc reporter destabilization hit call (CHEK2): inactive: 0
